Data: article PMC4734665
For at least one entry, the source does not settle the construct or the ends of the probe. Negatives hold for the conditions tested.

Sequences of proteins named here, by UniProt entry; tags and fusion partners are left off. A change or cut given only in a name is not applied to a line headed by its entry.
UniProt Q9C519: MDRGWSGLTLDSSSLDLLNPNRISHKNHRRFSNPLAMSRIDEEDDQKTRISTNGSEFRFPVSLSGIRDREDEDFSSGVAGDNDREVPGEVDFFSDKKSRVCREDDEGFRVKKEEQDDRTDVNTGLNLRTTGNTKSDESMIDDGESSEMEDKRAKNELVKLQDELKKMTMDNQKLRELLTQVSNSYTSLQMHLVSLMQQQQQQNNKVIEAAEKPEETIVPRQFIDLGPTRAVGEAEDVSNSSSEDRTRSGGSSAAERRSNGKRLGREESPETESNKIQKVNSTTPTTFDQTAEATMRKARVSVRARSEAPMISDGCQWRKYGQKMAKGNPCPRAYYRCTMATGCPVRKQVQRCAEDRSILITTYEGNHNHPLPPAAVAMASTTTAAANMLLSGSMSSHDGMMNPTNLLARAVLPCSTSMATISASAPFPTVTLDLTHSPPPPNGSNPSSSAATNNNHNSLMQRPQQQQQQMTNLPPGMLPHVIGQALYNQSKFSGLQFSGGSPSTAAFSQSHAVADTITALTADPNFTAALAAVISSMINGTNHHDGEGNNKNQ

Biological target: WRKY6-His (UniProt Q9C519)
Experiment: EMSA
Conditions: EMSA: 20 uL, 0.5 ug protein, 1 uL of 50 ug/mL biotin probe, 2 uL 10x buffer (1x = 10 mM Tris, 50 mM KCl, 1 mM DTT, pH 7.5), 1 uL 1% NP-40, 0.5 uL 1 mg/mL poly(dI-dC); recombinant protein; protein details: His (pET30a); label: biotin; probe letters rebuilt from the primers and the genome

## ATATTTGTAAGAATGCGTGTTTGAGGGGAGTAATTATAGTATATGTGCAGGTGCATGGGAAGTAAGATGGGTGTGTATGGGTCAACTCAAAGAACACAAAGGAAGCTTCGTGGAAACATAATGAAATATACGGCATTTAATTTAGGTTACTATATTAGGGTCTATTTCATGAACTGTTGATGTAACTTATAGAAGAAAACACACGAAGCAATAATAATCCTTATAATAAGTTAGTATTTTATTTATGTAAGAAAAAGAGAAAAGAGAGTATAGGAACAAATATAGAAATGAATATGTTGTGGGC (double strand) [RAV1 promoter P1]
  binding result: no binding
